Laboratory results as given in US20180237536A1.
Numbering of substitutions follows the chain as printed. These are yes or no findings as the source states them, for the method shown. A result given as binding can be weak or reduced; the word gives no strength.

B1: antibody 8C7 (antibody, human IgG1, V domains shown)
VH: EVQLQQSGPELVKPGASVKVSCKASGYAFASYNMNWVKQSHGKSLDWIGYIDPYNGGSSYNLTFKGKATLTVDKSSTTAYMHLNSLTSEDSAVYYCARGYGNYKAWFAYWGQGTLVTVSA
VL: SIVMTPTPKFLLVSAGDRVTITCKASQSVSNDVAWYQQKPGQSPKLLIYYASTRYTGVPDRFTGSGYGTDFTFTISTVQAEDLAVYFCQQDYSSLTFGAGTKLELKR
B2: antibody 3C12 (antibody, human IgG1, V domains shown)
VH: B1 VH with E1Q, V2I
VL: B1 VL with S1D, I2V, P6Q
B3: antibody 11E1 (antibody, human IgG1, V domains shown)
VH: B1 VH with V2I, A30T, N35Y, D46E, S58T, L62Q, T63K, T77S
VL: DAVMTQTPKFLLVSAGDRVTITCKASQSVTNDVAWYQQKPGQSPKLLIYYASNRYTGVPDRFTGSGYGTDFTFTISTVQAEDLAVYFCQQDYSSLTFGAGTKLELK
B4: antibody 6E1 (antibody, human IgG1, V domains shown)
VH: B1 VH with V2F, A30T, N35Y, S44R, D46E, L62Q, T63K, T77S, S85N, G101N
VL: B3 VL with D1S, A2I, V78M

The binders below were run against human CD73 expressed at the cell surface (human) (assay: flow cytometry on MDA-MB-231 cells with or without APCP).

How did the binding turn out when B1 was run?
The binding was “binds”.

B2 was tested. Which binding did it give?
Its binding is “binds”.

Which binding does the source give for B3 here?
Its binding is “binds”.

For B4, which binding is on record?
The binding was “binds”.

These binders were tested against human CD73 expressed at the cell surface (human) (assay: flow cytometry titration on MDA-MB-231 cells (endogenous CD73)).

For B1, which binding is on record?
Its binding is “binds”.

With B2 as the binder, how does the binding read?
The binding was “binds”.

Which binding does the source give for B3 here?
Its binding is “binds”.

With B4 as the binder, how does the binding read?
Its binding is “binds”.

What follows are binders tested against human CD73 expressed at the cell surface (human) (assay: flow cytometry on MDA-MB-231 cells with or without 200 µM APCP).

B1 was tested. Which binding did it give?
The binding was “binds”.

B2 was tested. Which binding did it give?
Its binding is “binds”.

B3 was tested. Which binding did it give?
Its binding is “binds”.

How did the binding turn out when B4 was run?
Its binding is “binds”.

The binders below were run against human CD73 expressed at the cell surface (human) (assay: flow cytometry titration on cells expressing wild type human CD73).

How did the binding turn out when B2 was run?
Its binding is “binds”.

These binders were tested against human CD73 expressed at the cell surface (human) (assay: flow cytometry titration on human CD73-expressing recombinant host cells).

How did the binding turn out when B1 was run?
The binding was “binds”.

How did the binding turn out when B2 was run?
The binding was “binds”.

Which binding does the source give for B3 here?
The binding was “binds”.

With B4 as the binder, how does the binding read?
Its binding is “binds”.

Each binder was assayed against human CD73 expressed at the cell surface (human) (assay: flow cytometry titration on HEK-293T cells transfected with wild type human CD73, mean of fluorescence).

With B2 as the binder, how does the binding read?
The binding was “binds”.

The binders below were run against human CD73 expressed at the cell surface (human) (assay: flow cytometry titration on MDA-MB-231 cells (endogenous human CD73), PE secondary, median of fluorescence).

How did the binding turn out when B1 was run?
The binding was “binds”.

How did the binding turn out when B2 was run?
Its binding is “binds”.

With B3 as the binder, how does the binding read?
The binding was “binds”.

Which binding does the source give for B4 here?
The binding was “binds”.

What follows are binders tested against human CD73 expressed at the cell surface (human) (assay: flow cytometry titration on human CD73-expressing recombinant host cells, PE secondary, median of fluorescence).

With B1 as the binder, how does the binding read?
The binding was “binds”.

B2 was tested. Which binding did it give?
Its binding is “binds”.

With B3 as the binder, how does the binding read?
The binding was “binds”.

B4 was tested. Which binding did it give?
The binding was “binds”.
